Data from the supplement of paper PMC10849652.
The other results are listed elsewhere or left out.

By UniProt entry, the sequences of proteins in these tests, tags left out. Where a name states a change or a piece, a line headed by the entry shows the natural chain unless it says otherwise.
UniProt Q15121, whole entry, looked up: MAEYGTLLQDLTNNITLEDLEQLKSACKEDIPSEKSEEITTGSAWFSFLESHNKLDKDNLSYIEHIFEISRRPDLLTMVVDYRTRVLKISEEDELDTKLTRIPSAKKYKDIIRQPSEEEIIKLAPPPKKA
UniProt Q96AQ6: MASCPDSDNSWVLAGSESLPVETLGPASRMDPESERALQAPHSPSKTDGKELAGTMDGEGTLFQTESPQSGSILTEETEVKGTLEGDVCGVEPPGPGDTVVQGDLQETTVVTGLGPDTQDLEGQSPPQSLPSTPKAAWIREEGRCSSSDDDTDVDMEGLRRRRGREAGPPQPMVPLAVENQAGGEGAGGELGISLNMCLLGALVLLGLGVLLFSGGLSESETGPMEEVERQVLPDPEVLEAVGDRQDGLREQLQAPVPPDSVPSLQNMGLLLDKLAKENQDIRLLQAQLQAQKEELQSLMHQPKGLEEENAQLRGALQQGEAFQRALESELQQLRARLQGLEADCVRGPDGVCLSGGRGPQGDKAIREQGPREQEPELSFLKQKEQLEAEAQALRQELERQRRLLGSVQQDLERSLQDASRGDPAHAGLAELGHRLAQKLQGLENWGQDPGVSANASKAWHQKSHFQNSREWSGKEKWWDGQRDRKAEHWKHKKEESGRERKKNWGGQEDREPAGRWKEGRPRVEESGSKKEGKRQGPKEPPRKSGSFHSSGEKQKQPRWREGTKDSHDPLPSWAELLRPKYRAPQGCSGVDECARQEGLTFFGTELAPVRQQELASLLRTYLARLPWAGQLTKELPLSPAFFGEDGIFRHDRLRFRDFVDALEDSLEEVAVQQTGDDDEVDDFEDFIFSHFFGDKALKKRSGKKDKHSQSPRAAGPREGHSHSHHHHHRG
UniProt P52209: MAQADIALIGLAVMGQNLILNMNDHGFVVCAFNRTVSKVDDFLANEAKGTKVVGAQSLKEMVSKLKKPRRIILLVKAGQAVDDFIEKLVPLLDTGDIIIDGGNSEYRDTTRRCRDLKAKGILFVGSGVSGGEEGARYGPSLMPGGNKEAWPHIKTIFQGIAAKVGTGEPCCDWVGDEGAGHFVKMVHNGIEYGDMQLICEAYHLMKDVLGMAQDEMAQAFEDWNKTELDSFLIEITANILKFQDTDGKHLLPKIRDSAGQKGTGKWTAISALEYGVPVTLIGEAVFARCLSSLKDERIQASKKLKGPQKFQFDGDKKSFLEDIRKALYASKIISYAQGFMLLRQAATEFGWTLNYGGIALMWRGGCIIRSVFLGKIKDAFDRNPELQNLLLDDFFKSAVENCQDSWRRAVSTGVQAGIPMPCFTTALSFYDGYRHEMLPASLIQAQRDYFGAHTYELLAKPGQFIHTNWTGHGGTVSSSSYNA
UniProt O15530: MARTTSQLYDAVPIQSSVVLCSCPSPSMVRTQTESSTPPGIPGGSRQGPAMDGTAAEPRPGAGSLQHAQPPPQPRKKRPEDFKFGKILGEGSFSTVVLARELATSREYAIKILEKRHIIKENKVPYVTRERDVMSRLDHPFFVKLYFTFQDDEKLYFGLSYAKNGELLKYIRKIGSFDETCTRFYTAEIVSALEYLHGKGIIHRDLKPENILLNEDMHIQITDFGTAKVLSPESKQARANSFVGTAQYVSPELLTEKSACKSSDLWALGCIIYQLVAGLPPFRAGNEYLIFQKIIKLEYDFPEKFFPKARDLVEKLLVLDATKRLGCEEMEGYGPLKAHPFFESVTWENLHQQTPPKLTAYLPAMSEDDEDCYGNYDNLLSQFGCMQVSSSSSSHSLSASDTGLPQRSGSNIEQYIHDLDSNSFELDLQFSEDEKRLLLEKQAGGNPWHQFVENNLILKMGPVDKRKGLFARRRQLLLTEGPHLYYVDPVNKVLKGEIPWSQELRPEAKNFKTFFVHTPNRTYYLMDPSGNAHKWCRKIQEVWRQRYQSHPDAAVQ
UniProt P61457: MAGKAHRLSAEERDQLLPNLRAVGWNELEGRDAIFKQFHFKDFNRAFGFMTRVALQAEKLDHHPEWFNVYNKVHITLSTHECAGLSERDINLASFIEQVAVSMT
UniProt O75381, whole entry, looked up: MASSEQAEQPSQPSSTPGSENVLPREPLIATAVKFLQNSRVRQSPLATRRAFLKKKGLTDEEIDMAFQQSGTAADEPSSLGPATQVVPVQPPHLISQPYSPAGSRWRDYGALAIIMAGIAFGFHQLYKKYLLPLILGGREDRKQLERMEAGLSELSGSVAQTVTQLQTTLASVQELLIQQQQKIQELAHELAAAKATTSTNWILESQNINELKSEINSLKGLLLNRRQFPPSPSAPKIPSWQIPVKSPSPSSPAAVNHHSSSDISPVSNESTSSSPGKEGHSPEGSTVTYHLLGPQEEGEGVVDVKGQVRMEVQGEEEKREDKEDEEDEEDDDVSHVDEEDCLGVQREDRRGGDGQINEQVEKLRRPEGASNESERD
UniProt Q9Y5K3: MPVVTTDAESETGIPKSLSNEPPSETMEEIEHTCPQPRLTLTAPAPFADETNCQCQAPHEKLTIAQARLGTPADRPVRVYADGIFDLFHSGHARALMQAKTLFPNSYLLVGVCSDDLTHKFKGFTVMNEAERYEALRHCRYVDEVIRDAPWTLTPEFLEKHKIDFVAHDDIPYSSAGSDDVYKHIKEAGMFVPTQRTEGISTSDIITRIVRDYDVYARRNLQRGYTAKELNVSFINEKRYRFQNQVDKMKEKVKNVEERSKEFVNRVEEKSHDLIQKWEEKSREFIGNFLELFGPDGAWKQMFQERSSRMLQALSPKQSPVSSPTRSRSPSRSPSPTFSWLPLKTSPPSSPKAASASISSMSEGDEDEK
UniProt P30039: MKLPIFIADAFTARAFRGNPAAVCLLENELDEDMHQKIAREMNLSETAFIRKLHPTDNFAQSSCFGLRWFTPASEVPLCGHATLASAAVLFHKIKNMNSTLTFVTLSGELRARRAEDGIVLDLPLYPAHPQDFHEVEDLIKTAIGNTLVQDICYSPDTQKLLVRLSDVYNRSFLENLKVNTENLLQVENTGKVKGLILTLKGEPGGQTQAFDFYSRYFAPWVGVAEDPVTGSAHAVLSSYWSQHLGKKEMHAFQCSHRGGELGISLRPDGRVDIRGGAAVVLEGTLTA
UniProt O14737: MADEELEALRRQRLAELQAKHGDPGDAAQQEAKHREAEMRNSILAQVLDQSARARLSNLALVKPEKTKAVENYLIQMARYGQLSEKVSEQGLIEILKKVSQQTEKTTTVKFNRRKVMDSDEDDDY
UniProt Q5JVF3: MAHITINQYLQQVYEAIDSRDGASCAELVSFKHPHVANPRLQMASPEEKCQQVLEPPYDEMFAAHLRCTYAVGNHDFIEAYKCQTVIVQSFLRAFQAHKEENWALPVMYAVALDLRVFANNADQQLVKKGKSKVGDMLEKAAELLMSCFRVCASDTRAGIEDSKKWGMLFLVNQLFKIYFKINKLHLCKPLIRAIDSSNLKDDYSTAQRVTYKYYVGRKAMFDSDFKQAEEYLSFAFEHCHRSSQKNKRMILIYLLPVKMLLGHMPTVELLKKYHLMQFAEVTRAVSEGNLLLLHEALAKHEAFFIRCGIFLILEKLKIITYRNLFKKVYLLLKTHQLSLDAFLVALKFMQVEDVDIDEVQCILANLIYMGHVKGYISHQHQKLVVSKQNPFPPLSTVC
UniProt Q8NBP7, whole entry, looked up: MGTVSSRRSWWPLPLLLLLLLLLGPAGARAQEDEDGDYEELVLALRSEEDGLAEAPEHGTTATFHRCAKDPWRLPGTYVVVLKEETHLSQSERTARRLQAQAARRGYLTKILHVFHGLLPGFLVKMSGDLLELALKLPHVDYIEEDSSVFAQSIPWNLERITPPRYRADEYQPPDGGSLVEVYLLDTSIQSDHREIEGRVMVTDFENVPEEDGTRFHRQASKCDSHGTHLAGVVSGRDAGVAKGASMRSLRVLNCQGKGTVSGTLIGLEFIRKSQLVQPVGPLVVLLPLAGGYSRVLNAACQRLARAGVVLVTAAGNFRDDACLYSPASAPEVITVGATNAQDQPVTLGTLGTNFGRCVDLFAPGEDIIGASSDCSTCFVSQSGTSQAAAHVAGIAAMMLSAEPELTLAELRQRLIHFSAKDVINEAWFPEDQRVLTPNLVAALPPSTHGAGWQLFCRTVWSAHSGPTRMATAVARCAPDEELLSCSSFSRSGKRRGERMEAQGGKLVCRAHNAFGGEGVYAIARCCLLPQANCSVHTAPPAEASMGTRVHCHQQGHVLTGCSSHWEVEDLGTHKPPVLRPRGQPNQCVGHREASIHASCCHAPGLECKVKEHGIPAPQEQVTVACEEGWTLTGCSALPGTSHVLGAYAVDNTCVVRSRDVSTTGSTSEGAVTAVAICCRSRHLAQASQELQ
UniProt P07737, whole entry, looked up: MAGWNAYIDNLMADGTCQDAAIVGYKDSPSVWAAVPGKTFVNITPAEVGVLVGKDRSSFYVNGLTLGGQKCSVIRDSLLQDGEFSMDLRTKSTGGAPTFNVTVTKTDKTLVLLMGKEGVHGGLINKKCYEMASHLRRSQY
UniProt Q9NR12, whole entry, looked up: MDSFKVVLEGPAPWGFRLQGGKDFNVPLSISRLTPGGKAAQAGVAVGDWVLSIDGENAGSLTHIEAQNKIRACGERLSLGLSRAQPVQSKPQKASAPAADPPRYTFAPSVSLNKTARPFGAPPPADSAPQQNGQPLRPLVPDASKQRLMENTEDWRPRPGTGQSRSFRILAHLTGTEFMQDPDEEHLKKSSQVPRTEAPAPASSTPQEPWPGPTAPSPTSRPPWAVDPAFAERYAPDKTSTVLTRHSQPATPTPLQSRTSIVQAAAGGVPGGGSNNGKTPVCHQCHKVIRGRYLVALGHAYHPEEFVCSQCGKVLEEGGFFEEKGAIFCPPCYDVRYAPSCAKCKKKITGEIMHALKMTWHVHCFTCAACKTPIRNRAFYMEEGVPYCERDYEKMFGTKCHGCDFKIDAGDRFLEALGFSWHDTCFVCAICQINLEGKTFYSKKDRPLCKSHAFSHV
UniProt Q8NCN5: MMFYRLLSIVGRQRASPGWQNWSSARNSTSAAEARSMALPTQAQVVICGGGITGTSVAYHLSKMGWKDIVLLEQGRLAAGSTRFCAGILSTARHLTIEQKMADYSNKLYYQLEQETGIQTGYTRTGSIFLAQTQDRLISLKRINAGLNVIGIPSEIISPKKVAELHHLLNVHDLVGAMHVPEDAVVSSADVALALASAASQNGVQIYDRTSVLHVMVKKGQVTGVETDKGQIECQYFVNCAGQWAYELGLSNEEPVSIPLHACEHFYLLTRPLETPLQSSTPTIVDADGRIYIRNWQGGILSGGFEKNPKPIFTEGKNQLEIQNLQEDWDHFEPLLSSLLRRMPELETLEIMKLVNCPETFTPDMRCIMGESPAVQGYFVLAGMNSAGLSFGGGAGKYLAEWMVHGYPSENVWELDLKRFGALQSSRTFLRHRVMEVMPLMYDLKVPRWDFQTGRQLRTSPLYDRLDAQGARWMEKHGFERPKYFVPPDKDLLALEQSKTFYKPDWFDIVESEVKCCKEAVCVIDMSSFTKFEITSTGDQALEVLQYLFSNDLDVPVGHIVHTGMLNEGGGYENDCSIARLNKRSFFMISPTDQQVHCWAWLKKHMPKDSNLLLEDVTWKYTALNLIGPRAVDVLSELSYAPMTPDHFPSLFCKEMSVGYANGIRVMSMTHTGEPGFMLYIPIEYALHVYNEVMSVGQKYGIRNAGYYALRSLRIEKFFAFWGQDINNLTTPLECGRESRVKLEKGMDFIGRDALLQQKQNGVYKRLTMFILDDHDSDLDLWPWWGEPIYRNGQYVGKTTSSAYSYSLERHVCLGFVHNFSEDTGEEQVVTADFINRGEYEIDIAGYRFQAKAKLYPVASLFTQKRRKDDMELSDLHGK
UniProt Q9BUL8: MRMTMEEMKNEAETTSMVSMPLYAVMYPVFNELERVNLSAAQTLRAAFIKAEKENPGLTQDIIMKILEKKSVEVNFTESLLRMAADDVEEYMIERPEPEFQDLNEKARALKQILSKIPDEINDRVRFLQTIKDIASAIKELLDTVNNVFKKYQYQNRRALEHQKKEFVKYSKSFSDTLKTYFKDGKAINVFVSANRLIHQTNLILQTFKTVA
UniProt Q16875: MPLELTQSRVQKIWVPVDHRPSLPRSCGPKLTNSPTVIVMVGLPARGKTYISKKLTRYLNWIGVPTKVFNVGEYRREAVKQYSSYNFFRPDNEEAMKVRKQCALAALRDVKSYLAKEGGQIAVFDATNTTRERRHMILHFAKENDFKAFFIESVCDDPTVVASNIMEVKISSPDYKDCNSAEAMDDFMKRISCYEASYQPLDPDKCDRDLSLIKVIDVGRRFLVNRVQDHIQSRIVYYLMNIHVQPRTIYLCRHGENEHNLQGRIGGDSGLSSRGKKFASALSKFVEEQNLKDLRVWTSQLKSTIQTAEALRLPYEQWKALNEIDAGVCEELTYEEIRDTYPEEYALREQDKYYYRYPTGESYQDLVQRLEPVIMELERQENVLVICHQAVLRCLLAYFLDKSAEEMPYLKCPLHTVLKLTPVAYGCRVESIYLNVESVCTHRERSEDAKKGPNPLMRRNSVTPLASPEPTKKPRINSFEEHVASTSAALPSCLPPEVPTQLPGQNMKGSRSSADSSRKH

What was measured:
Assay in all cases: log2 fold change, soluble protein after heating vs DMSO (PISA); higher = thermal stabilisation; K562 lysate, 10 uM; active = over 0.2 and 3.5 SD of the protein, either way, in both replicates (recomputed)
lapatinib = compound: CS(=O)(=O)CCNCc1ccc(-c2ccc3ncnc(Nc4ccc(OCc5cccc(F)c5)c(Cl)c4)c3c2)o1 [lapatinib]
Procedure, shortened: (§1)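 The values are log-two fold changes in thermal stability compared with solvent controls and come from duplicates. They were obtained by TMTpro 16plex LC-MS/MS, with channel sums equalised, on the supernatant after 21,000xg for 90 min. That supernatant came from crude K562 extract at 1 mg/mL protein treated with 10 μM compound for 30 min, heated for 3 min across 48°C-58°C, pooled and brought to 0.5% NP-40 at 4°C.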

pictilisib = compound: CS(=O)(=O)N1CCN(Cc2cc3nc(-c4cccc5[nH]ncc45)nc(N4CCOCC4)c3s2)CC1 [pictilisib]
Procedure, shortened: as §1

crizotinib = compound: C[C@@H](Oc1cc(-c2cnn(C3CCNCC3)c2)cnc1N)c1c(Cl)ccc(F)c1Cl [crizotinib]
Procedure, shortened: as §1

[1] = compound: C[C@H](C1=CC=C(C=C1)C(=O)NC2=C3C=CNC3=NC=C2)N
Procedure, shortened: as §1

duvelisib = compound: C[C@H](Nc1ncnc2nc[nH]c12)c1cc2cccc(Cl)c2c(=O)n1-c1ccccc1 [duvelisib]
Procedure, shortened: as §1

gandotinib = compound: Cc1cc(Nc2cc(CN3CCOCC3)c3nc(C)c(Cc4ccc(Cl)cc4F)n3n2)n[nH]1 [gandotinib]
Procedure, shortened: as §1

tozasertib = compound: Cc1cc(Nc2cc(N3CCN(C)CC3)nc(Sc3ccc(NC(=O)C4CC4)cc3)n2)n[nH]1 [tozasertib]
Procedure, shortened: as §1

doramapimod = compound: Cc1ccc(-n2nc(C(C)(C)C)cc2NC(=O)Nc2ccc(OCCN3CCOCC3)c3ccccc23)cc1 [doramapimod]
Procedure, shortened: as §1

bafetinib = compound: Cc1ccc(NC(=O)c2ccc(CN3CC[C@H](N(C)C)C3)c(C(F)(F)F)c2)cc1Nc1nccc(-c2cncnc2)n1 [bafetinib]
Procedure, shortened: as §1

[2] = compound: Cc1cccc(CC(=O)N2CCc3c2ccc(-c2cn(C)c4ncnc(N)c24)c3F)n1
Procedure, shortened: as §1

nilotinib = compound: Cc1cn(-c2cc(NC(=O)c3ccc(C)c(Nc4nccc(-c5cccnc5)n4)c3)cc(C(F)(F)F)c2)cn1 [nilotinib]
Procedure, shortened: as §1

[3] = compound: Cc1nc(Nc2n[nH]c3c2CN(C(=O)N[C@H](CN(C)C)c2ccccc2)C3(C)C)c2sccc2n1
Procedure, shortened: as §1

dasatinib = compound: Cc1nc(Nc2ncc(C(=O)Nc3c(C)cccc3Cl)s2)cc(N2CCN(CCO)CC2)n1 [dasatinib]
Procedure, shortened: as §1

[4] = compound: Cc1ncc(-c2ccnc(Nc3ccc(S(C)(=O)=O)cc3)n2)n1C(C)C
Procedure, shortened: as §1

[5] = compound: Cn1cc(-c2ccc3c(c2)CCN3C(=O)Cc2cccc(C(F)(F)F)c2)c2c(N)ncnc21
Procedure, shortened: as §1

quisinostat = compound: Cn1cc(CNCC2CCN(c3ncc(C(=O)NO)cn3)CC2)c2ccccc21 [quisinostat]
Procedure, shortened: as §1

tipifarnib = compound: Cn1cncc1[C@@](N)(c1ccc(Cl)cc1)c1ccc2c(c1)c(-c1cccc(Cl)c1)cc(=O)n2C [tipifarnib]
Procedure, shortened: as §1

[6] = compound: NC(=O)Nc1cc(-c2cccc(F)c2)sc1C(=O)N[C@H]1CCCNC1
Procedure, shortened: as §1

[7] = compound: NC(=O)c1cnc(N[C@@H]2CCCC[C@@H]2N)nc1Nc1cccc(-n2nccn2)c1
Procedure, shortened: as §1

[8] = compound: NC1(c2ccc(-c3nc4ccn5c(=O)[nH]nc5c4cc3-c3ccccc3)cc2)CCC1
Procedure, shortened: as §1

Row | Target | log2 fold change (lapatinib) | log2 fold change (pictilisib) | log2 fold change (crizotinib) | log2 fold change [1] | log2 fold change (duvelisib) | log2 fold change (gandotinib) | log2 fold change (tozasertib) | log2 fold change (doramapimod) | log2 fold change (bafetinib) | log2 fold change [2] | log2 fold change (nilotinib) | log2 fold change [3] | log2 fold change (dasatinib) | log2 fold change [4] | log2 fold change [5] | log2 fold change (quisinostat) | log2 fold change (tipifarnib) | log2 fold change [6] | log2 fold change [7] | log2 fold change [8]
1 | PEA15 isoform 2 (UniProt Q15121) | inactive: 0.046 | inactive: -0.028 | inactive: 0.001 | inactive: 0.032 | inactive: 0.075 | inactive: -0.031 | inactive: 0.047 | inactive: 0.05 | inactive: 0.015 | inactive: -0.012 | inactive: 0.017 | inactive: 0.02 | inactive: 0.011 | inactive: 0.041 | inactive: -0.043 | inactive: 0.012 | inactive: 0.041 | inactive: -0.05 | inactive: 0 | inactive: -0.035
2 | PBXIP1 (UniProt Q96AQ6) | inactive: -0.008 | inactive: -0.025 | inactive: 0.008 | inactive: -0.038 | inactive: -0.003 | inactive: -0.011 | inactive: 0.007 | inactive: -0.018 | inactive: -0.007 | inactive: 0.025 | inactive: 0.012 | inactive: -0.085 | inactive: -0.021 | inactive: 0.021 | inactive: -0.009 | inactive: 0.005 | inactive: 0.026 | inactive: 0.003 | inactive: 0.019 | inactive: -0.028
3 | PGD (UniProt P52209) | inactive: 0.007 | inactive: 0.008 | inactive: 0.005 | inactive: 0.051 | inactive: -0.007 | inactive: -0.056 | inactive: 0.026 | inactive: 0.007 | inactive: 0.05 | inactive: -0.057 | inactive: -0.011 | inactive: 0.005 | inactive: 0.02 | inactive: 0.017 | inactive: -0.011 | inactive: 0.007 | inactive: 0.015 | inactive: -0.019 | inactive: 0.003 | inactive: 0.033
4 | PDPK1 (UniProt O15530) | inactive: -0.04 | inactive: -0.051 | inactive: 0.03 | inactive: 0.262 | inactive: -0.039 | inactive: 0.092 | inactive: -0.029 | inactive: -0.012 | inactive: -0.021 | inactive: -0.211 | inactive: -0.093 | inactive: 0.314 | inactive: -0.014 | inactive: -0.093 | inactive: 0 | inactive: -0.094 | inactive: -0.011 | active: 0.619 | inactive: 0.019 | inactive: -0.059
5 | PCBD1 (UniProt P61457) | inactive: -0.009 | inactive: -0.006 | inactive: -0.02 | inactive: -0.157 | inactive: 0.046 | inactive: 0.01 | inactive: 0.022 | inactive: 0.078 | inactive: -0.041 | inactive: 0.04 | inactive: -0.01 | inactive: -0.003 | inactive: -0.002 | inactive: -0.078 | inactive: -0.068 | inactive: -0.13 | inactive: -0.007 | inactive: -0.013 | inactive: -0.004 | inactive: -0.013
6 | PEX14 (UniProt O75381) | inactive: -0.018 | inactive: -0.009 | inactive: 0.008 | inactive: -0.036 | inactive: 0.002 | inactive: 0.006 | inactive: 0.012 | inactive: 0.006 | inactive: -0.042 | inactive: -0.015 | inactive: 0.007 | inactive: -0.015 | inactive: -0.019 | inactive: -0.007 | inactive: 0.008 | inactive: 0.005 | inactive: -0.029 | inactive: -0.009 | inactive: 0.016 | inactive: -0.067
7 | PCYT1B (UniProt Q9Y5K3) | inactive: 0.008 | inactive: 0.004 | inactive: 0.025 | inactive: -0.044 | inactive: -0.007 | inactive: 0.193 | inactive: 0.008 | inactive: -0.003 | inactive: -0.127 | active: 0.239 | inactive: -0.079 | inactive: -0.003 | inactive: 0 | inactive: 0.022 | inactive: -0.026 | inactive: 0.039 | inactive: 0.047 | inactive: -0.023 | inactive: -0.008 | inactive: 0.054
8 | PBLD (UniProt P30039) | inactive: -0.084 | inactive: -0.1 | inactive: -0.215 | inactive: -0.114 | inactive: -0.156 | inactive: -0.105 | inactive: 0.069 | inactive: 0.054 | inactive: 0.091 | inactive: 0.128 | inactive: 0.01 | inactive: -0.036 | inactive: 0.097 | inactive: 0.04 | inactive: -0.035 | inactive: -0.126 | inactive: 0.035 | inactive: -0.03 | inactive: 0.032 | inactive: 0.005
9 | PDCD5 (UniProt O14737) | inactive: 0.009 | inactive: -0.034 | inactive: 0.043 | inactive: -0.141 | inactive: -0.009 | inactive: 0.078 | inactive: 0.042 | inactive: -0.014 | inactive: -0.009 | inactive: 0.03 | inactive: -0.005 | inactive: -0.008 | inactive: -0.001 | inactive: -0.026 | inactive: -0.07 | inactive: 0.019 | inactive: 0.039 | inactive: -0.008 | inactive: -0.037 | inactive: 0.004
10 | PCID2 (UniProt Q5JVF3) | inactive: -0.012 | inactive: -0.03 | inactive: -0.016 | inactive: 0.039 | inactive: -0.025 | inactive: -0.082 | inactive: 0 | inactive: 0.034 | inactive: -0.008 | inactive: 0.035 | inactive: -0.09 | inactive: 0.021 | inactive: -0.059 | inactive: 0.059 | inactive: -0.022 | inactive: -0.049 | inactive: -0.067 | inactive: 0.012 | inactive: 0.032 | inactive: 0.013
11 | PCSK9 (UniProt Q8NBP7) | inactive: 0.023 | inactive: 0.008 | inactive: -0.048 | inactive: 0.016 | inactive: 0.005 | inactive: 0.001 | inactive: -0.018 | inactive: 0.017 | inactive: -0.038 | inactive: 0.11 | inactive: 0.016 | inactive: -0.015 | inactive: -0.046 | inactive: 0.036 | inactive: 0.08 | inactive: -0.021 | inactive: -0.034 | inactive: 0.018 | inactive: -0.027 | inactive: -0.022
12 | PFN1 (UniProt P07737) | inactive: 0.01 | inactive: -0.003 | inactive: 0.016 | inactive: -0.006 | inactive: 0.009 | inactive: 0.007 | inactive: -0.004 | inactive: 0.007 | inactive: 0 | inactive: 0.007 | inactive: -0.002 | inactive: 0.002 | inactive: 0.022 | inactive: -0.008 | inactive: -0.006 | inactive: 0.008 | inactive: 0.03 | inactive: -0.018 | inactive: -0.018 | inactive: 0.014
13 | PDLIM7 (UniProt Q9NR12) | inactive: 0.011 | inactive: 0.004 | inactive: 0.015 | inactive: -0.029 | inactive: 0.021 | inactive: 0.011 | inactive: -0.023 | inactive: -0.033 | inactive: -0.05 | inactive: -0.003 | inactive: 0.022 | inactive: -0.022 | inactive: 0.013 | inactive: -0.01 | inactive: -0.005 | inactive: -0.004 | inactive: -0.009 | inactive: -0.008 | inactive: -0.001 | inactive: -0.012
14 | PDPR (UniProt Q8NCN5) | inactive: -0.021 | inactive: -0.026 | inactive: -0.011 | inactive: -0.028 | inactive: 0.011 | inactive: 0.012 | inactive: 0.02 | inactive: 0.014 | inactive: 0.01 | inactive: 0.037 | inactive: 0.012 | inactive: 0.018 | inactive: -0.006 | inactive: -0.002 | inactive: 0.008 | inactive: -0.027 | inactive: -0.014 | inactive: 0.025 | inactive: 0.019 | inactive: -0.054
15 | PDCD10 (UniProt Q9BUL8) | inactive: -0.016 | inactive: -0.014 | inactive: -0.005 | active: -0.254 | inactive: -0.007 | inactive: 0.112 | inactive: 0.023 | inactive: -0.013 | inactive: -0.033 | inactive: 0.031 | inactive: 0.006 | inactive: 0.121 | inactive: 0.077 | inactive: 0.03 | inactive: 0.013 | inactive: -0.053 | inactive: -0.005 | inactive: 0.114 | inactive: -0.018 | inactive: 0.004
16 | PFKFB3 isoform 4 (UniProt Q16875) | inactive: -0.228 | inactive: -0.057 | inactive: -0.021 | inactive: 0.004 | inactive: -0.009 | inactive: -0.006 | inactive: -0.003 | inactive: 0.007 | inactive: -0.03 | inactive: 0.007 | inactive: 0.018 | inactive: -0.023 | inactive: -0.088 | inactive: -0.021 | inactive: 0.075 | inactive: -0.012 | inactive: 0.01 | inactive: -0.025 | inactive: -0.192 | inactive: -0.001

Record cards, as listed above. Order of values: log2 fold change (lapatinib)	log2 fold change (pictilisib)	log2 fold change (crizotinib)	log2 fold change [1]	log2 fold change (duvelisib)	log2 fold change (gandotinib)	log2 fold change (tozasertib)	log2 fold change (doramapimod)	log2 fold change (bafetinib)	log2 fold change [2]	log2 fold change (nilotinib)	log2 fold change [3]	log2 fold change (dasatinib)	log2 fold change [4]	log2 fold change [5]	log2 fold change (quisinostat)	log2 fold change (tipifarnib)	log2 fold change [6]	log2 fold change [7]	log2 fold change [8]
PGD (UniProt P52209) as listed: inactive: 0.007	inactive: 0.008	inactive: 0.005	inactive: 0.051	inactive: -0.007	inactive: -0.056	inactive: 0.026	inactive: 0.007	inactive: 0.05	inactive: -0.057	inactive: -0.011	inactive: 0.005	inactive: 0.02	inactive: 0.017	inactive: -0.011	inactive: 0.007	inactive: 0.015	inactive: -0.019	inactive: 0.003	inactive: 0.033
PCYT1B (UniProt Q9Y5K3) as listed: inactive: 0.008	inactive: 0.004	inactive: 0.025	inactive: -0.044	inactive: -0.007	inactive: 0.193	inactive: 0.008	inactive: -0.003	inactive: -0.127	active: 0.239	inactive: -0.079	inactive: -0.003	inactive: 0	inactive: 0.022	inactive: -0.026	inactive: 0.039	inactive: 0.047	inactive: -0.023	inactive: -0.008	inactive: 0.054
